Measurements as given in patent US9253980B2 (priority 2011, dated 2016).
Some results were stated once for a whole list of compounds, not compound by compound.

Columns and labels:
Assay type in all cases: cell-based
Conditions in all cases: 31 ppm active substance; measured at 405 nm 7 days after inoculation; active compound-free control = 100%
Septoria tritici = assay: Microtiter test, activity against leaf blotch pathogen Septoria tritici
Phytophthora infestans = system: Phytophthora infestans
Pyricularia oryzae = system: Pyricularia oryzae

C=CCn1c(=O)c2sc3c(=O)n(CC=C)c(=O)c3sc2c1=O [I-1, 2,6-Diallyl-1H,5H-[1,4]dithiino[2,3-c:5,6-c′]dipyrrol-1,3,5,7(2H,6H)tetrone]
growth of the pathogen (relative growth in %) (Septoria tritici): at most 15%
growth of the pathogen (relative growth in %) (Phytophthora infestans): at most 15%

COn1c(=O)c2sc3c(=O)n(OC)c(=O)c3sc2c1=O [I-2, 2.6-Dimethoxy-1H.5H-[1.4]dithiino[2,3-c:5.6-c′]dipyrrol-1.3.5.7(2H.6H)tetrone]
growth of the pathogen (relative growth in %) (Pyricularia oryzae): at most 15%
growth of the pathogen (relative growth in %) (Septoria tritici): at most 15%
